Data on 60 molecules can be found in PubChem BioAssay AID2685 (National Center for Advancing Translational Sciences (NCATS), 2010).

A short description of this assay: qHTS Assay for Lipid Storage Modulators in Drosophila S3 Cells.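 For cell number change: cells counted by Cell Tracker Red CMTPX staining in the red channel.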 The settings on record: BODIPY lipid droplet fluorescence, 18-24 h; for cell number change: measured here: cell count max response, cells fed with added oleic acid. In short, it runs like this: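 Laser-scanning cytometry quantifies lipid droplet accumulation (500–530 nm total intensity; droplet/cell object ratio) in oleic acid-fed (400 uM added) Drosophila S3 cells treated with a concentration series. 20 uM Triacsin C defined 100% inhibition.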
For orientation: qHTS replaces the single test concentration by a dilution series.

Where [1] appears, read: measured here: lipid fluorescence (Fed channel) AC50, cells fed with added oleic acid.
[2] abbreviates: measured here: cell number channel AC50, cells fed with added oleic acid.

Structures are written as SMILES. Some of the results follow. These are further read-outs of the screen, such as a control signal, another cell line or another target. No call is given for them. Most of these compounds were active or inconclusive in the main read-out, so they are no random draw. The note in brackets gives the kind of curve behind each potency; many fits are weak.

As to `Cc1cc(C)c2[nH]c(=S)cc(C)c2c1`, the cell number change came out at 24.1%.

Take `CC(NC(=O)Nc1ncccn1)(C(F)(F)F)C(F)(F)F`: the cell number change stood at 4.63%. Moreover, under setting [1], the concentration at half-maximal activity (AC50) (in general, the concentration at which the activity in the assay is half-maximal) was 130 nM [rising, full curve, poor fit].

In the case of `CCCOc1c(Br)cc(C(=O)OCC(=O)NC2CC2)cc1OC`, the concentration at half-maximal activity (AC50) under setting [1] is 2310 nM [rising, partial curve].

Regarding `CC(=O)N1CCN(C(=O)c2ccc(-c3cccc(C(F)(F)F)c3)o2)CC1`, the cell number change worked out at 42%. The AC50 under setting [2] is 4610 nM [rising, full curve]. In addition, under setting [1], the half-maximal activity concentration (AC50) is 7310 nM [rising, partial curve].

Turning to `O=C(CCNC(=O)C1CCN(S(=O)(=O)c2ccc(F)cc2)CC1)NCc1ccncc1`, the cell number change came to 16.5%.

Regarding `CC(=O)C1=C(O)C(=O)N(CCN(C)C)C1c1ccc(Cl)cc1` (stereo not given), the cell number change is -15.1%. Further, the half-maximal activity concentration (AC50) under setting [1] was 23100 nM [falling, partial curve, poor fit].

For the molecule `O=C(c1cc2ccccc2cc1O)N1CCCC(C(F)(F)F)C1` (stereo not given), the cell number change is 7.57%.

On to `O=C(NCCc1cnccn1)C1CCC(=O)N(Cc2ccc(Cl)cc2)C1` (stereo not given), for which the cell number change was 20.5%. Moreover, under setting [1], the AC50 is 23100 nM [rising, single point].

`CCN(C(=O)COC(=O)Cc1cccc2ccccc12)C1CCS(=O)(=O)C1` (stereo not given): the cell number change came out at 0.94%. For the same molecule, the concentration at half-maximal activity (AC50) under setting [1] is 291 nM [rising, partial curve, poor fit].

Regarding `O=C(c1ccc2c(=O)n3c(nc2c1)CCCCC3)N1CCN(C(c2ccccc2)c2ccccc2)CC1`, the cell number change was found to be 24.8%.

Consider `Cc1ccc(C(C)C)c(OCC(=O)Nc2ccc(N3CCOCC3)cc2N2CCOCC2)c1`, for which the cell number change amounted to 51%. Also, under setting [2], the AC50 is 6510 nM [rising, full curve].

With `CC(=O)/C(=N/Nc1ccccc1)N1CCOCC1`, the cell number change came to 53.4%. The half-maximal activity concentration (AC50) under setting [2] was 29100 nM [rising, single point]. For the same molecule, under setting [1], the AC50 is 29100 nM [rising, single point].

For the molecule `COC(=O)C1CN(C(=O)c2cccc(OC(F)F)c2)c2ccccc2O1` (stereo not given), the cell number change is -10.5%.

Take `C=CCc1ccc(O)c(-c2cc(CC=C)ccc2O)c1`: the cell number change was -37%. Besides, the AC50 under setting [2] was 20600 nM [falling, single point]. Further, the AC50 under setting [1] is 29100 nM [falling, single point].

For the molecule `O=C(CN1C(=O)COc2ccc(Cl)cc21)N1CCc2ccccc21`, the concentration at half-maximal activity (AC50) under setting [2] was 6510 nM [rising, single point].

`COc1cccc(C2C(C(C)=O)=C(O)C(=O)N2CCc2c[nH]c3ccccc23)c1` (stereo not given): the cell number change is -24.1%. Further, the AC50 under setting [2] was 2590 nM [falling, full curve, poor fit].

As for `Cn1c(=O)c2c(ncn2CC(=O)NC(C)(C)C)n(C)c1=O`, the cell number change worked out at 2.36%.

Turning to `Cn1nccc1NC(=O)Nc1ccccc1`, the cell number change is -20.7%. Further, the AC50 under setting [2] is 116 nM [falling, full curve, poor fit]. The half-maximal activity concentration (AC50) under setting [1] is 18400 nM [falling, single point].

Regarding `O=C(Nc1cc(S(=O)(=O)Nc2ccc(Cl)cc2)ccc1N1CCCCC1)c1ccc(F)cc1Cl`, the cell number change was -18.5%.

With `CC(C)(C)n1nc2c(c1NC(=O)c1cc3ccccc3o1)CSC2`, the cell number change came to 29.2%.

Consider `COC(=O)c1ccc(OCC(=O)NC2CCCCCC2)cc1`, for which the cell number change was 9.69%. In addition, the half-maximal activity concentration (AC50) under setting [1] was 18.4 nM [falling, full curve].

`COc1cc(C(=O)NCCOc2ccccc2)c(Br)c(OC)c1OC`: the cell number change is 102%. For the same molecule, the AC50 under setting [2] was 7310 nM [falling, partial curve, poor fit]. In addition, the concentration at half-maximal activity (AC50) under setting [1] was 3260 nM [falling, partial curve].

On to `COC(=O)C(C)N1C(=O)S/C(=C/c2cc(C)n(C(C)C)c2C)C1=O` (stereo not given), for which the cell number change was 55.7%. In addition, the concentration at half-maximal activity (AC50) under setting [2] was 820 nM [rising, partial curve]. Further, the AC50 under setting [1] is 291 nM [rising, full curve].

Regarding `O=C(Nc1ccc(S(=O)(=O)Nc2ncccn2)cc1)c1cnc(Cl)c(Cl)c1`, the cell number change is -38.5%. Moreover, the half-maximal activity concentration (AC50) under setting [2] is 517 nM [falling, full curve]. The concentration at half-maximal activity (AC50) under setting [1] was 4110 nM [falling, full curve].

`O=C(O)c1cc(C(=O)C2CCCCC2)c[nH]1`: the AC50 reads like this: under setting [2], 6510 nM [rising, single point]; under setting [1], 580 nM [rising, single point].

With `C=CCn1c(SCC(=O)c2ccc(Br)cc2)nnc1C(CC(C)C)NC(=O)c1cccs1` (stereo not given), the cell number change worked out at 35%. For the same molecule, under setting [2], the AC50 is 29100 nM [rising, single point]. In addition, under setting [1], the half-maximal activity concentration (AC50) was 29100 nM [rising, single point].

As to `COCC(C)n1c(SCC(=O)NC(=O)Cc2ccccc2)nc2ccccc2c1=O` (stereo not given), the cell number change is -15%.

`Cc1ccc(NC(=O)CCl)c(C)c1`: the cell number change turned out to be 25.1%. For the same molecule, the AC50 under setting [2] is 2910 nM [rising, single point]. Besides, the AC50 under setting [1] is 2910 nM [rising, single point].

On to `CCCC(C(=O)NC1CCCC1)N(Cc1ccc(OC)cc1)C(=O)c1snc(C(N)=O)c1N` (stereo not given), for which the cell number change is -2.17%. For the same molecule, the concentration at half-maximal activity (AC50) under setting [1] was 1840 nM [falling, partial curve].

With `CCOC(=O)CN(C(=O)c1ccccc1)c1ccccc1C`, the cell number change came out at 13%. For the same molecule, under setting [1], the AC50 is 11600 nM [rising, partial curve, poor fit].

With `C=CCNC(=S)NNC(=O)c1ccccc1OCC`, the cell number change worked out at 26.8%. The AC50 under setting [1] was 25900 nM [rising, partial curve].

As for `Nc1nonc1-n1nnc(C(=O)N/N=C/c2cc(Br)cs2)c1-c1ccccc1`, the cell number change stood at 25.2%.

Regarding `CCOC(=O)[C@H]1[C@H]2COc3ccc(Cl)cc3[C@@H]2N2C(=O)c3ccc(F)cc3NC(=O)[C@@]12C`, the cell number change is -0.726%. For the same molecule, under setting [2], the AC50 is 6510 nM [falling, single point]. The AC50 under setting [1] is 164 nM [falling, partial curve, poor fit].

Consider `COc1c(Cl)cc(Cl)cc1C(=O)Nc1ccc(NC(=O)c2cccs2)cc1`, for which the cell number change is -3.07%. For the same molecule, the half-maximal activity concentration (AC50) under setting [2] was 731 nM [falling, single point]. The concentration at half-maximal activity (AC50) under setting [1] is 651 nM [falling, single point].

Take `CC(C)c1ccc(NC(=O)CNC(=O)Cn2ccc3ccccc3c2=O)cc1`: the cell number change was -8.11%. The AC50 under setting [1] is 29100 nM [falling, single point].

Consider `Cc1cc(OCC(=O)NNC(=O)c2cccs2)ccc1Br`, for which the cell number change is -5.26%. The concentration at half-maximal activity (AC50) under setting [2] is 5.17 nM [rising, full curve, poor fit].

As to `CN(C)S(=O)(=O)c1cc(NC(=O)CN2C(=O)NC3(CCCc4ccccc43)C2=O)ccc1Cl` (stereo not given), the cell number change is -38.6%. Under setting [2], the AC50 was 29100 nM [falling, single point].

As to `Cc1cc(C)c(NC(=O)CN(C)S(=O)(=O)c2ccc3c(c2)n(C)c(=O)c(=O)n3C)c(C)c1`, the cell number change came out at 21.5%.

In the case of `Cc1ccc(C(=O)N2CCN(c3ccc(N4CCOCC4)nn3)CC2)cc1`, the cell number change came to 2.62%. Also, the AC50 under setting [2] is 130 nM [falling, full curve, poor fit].

Consider `COc1ccccc1-c1cc(C(=O)N2CCOCC2)no1`, for which the cell number change is 15.7%. Moreover, the AC50 under setting [1] was 580 nM [falling, single point].

With `COC(=O)c1[nH]c2ccccc2c1NC(=O)c1ccccc1[N+](=O)[O-]`, the cell number change is -35%. Also, the half-maximal activity concentration (AC50) under setting [2] was 2590 nM [falling, partial curve, poor fit]. Also, the AC50 under setting [1] was 5.8 nM [falling, full curve, poor fit].

With `CN(C(=O)c1ccc(Cl)c([N+](=O)[O-])c1)C1(C)CCS(=O)(=O)C1` (stereo not given), the cell number change is -25.1%. For the same molecule, the AC50 under setting [1] was 231 nM [falling, full curve].

Regarding `O=[N+]([O-])c1ccccc1S(=O)(=O)N1CCN(Cc2cc3c(cc2O)OCO3)CC1`, the cell number change came out at 14.1%.

Take `CCN(CC(=O)Nc1ccc(C(C)=O)cc1)CC(=O)Nc1ccccc1C(F)(F)F`: the cell number change was -2.89%.

For `Cc1ccccc1OCCn1cc(C=O)c2ccccc21`, the AC50 under setting [1] is 6510 nM [falling, partial curve].

Regarding `CC1CCCC(C)N1/N=C/c1cc(Br)c(O)c(Br)c1` (stereo not given), the cell number change is -10.6%. Moreover, the concentration at half-maximal activity (AC50) under setting [2] is 92 nM [falling, full curve, poor fit]. Further, the AC50 under setting [1] was 731 nM [falling, single point].

In the case of `Cc1ccc(C(=O)O)cc1-n1c(C)cc(C=O)c1C`, the cell number change came to 15.7%. Further, the half-maximal activity concentration (AC50) under setting [1] is 103 nM [rising, full curve, poor fit].

As for `COc1ccc(S(=O)(=O)N2CCCCCC2)cc1C(=O)N(C)Cc1ccc(Cl)cc1Cl`, the AC50 under setting [2] is 2910 nM [rising, single point] and the AC50 under setting [1] is 2910 nM [rising, full curve].

Regarding `COc1ccc(C(=O)NC(C)c2ccncc2)cc1S(=O)(=O)N(C)Cc1ccccc1` (stereo not given), the cell number change worked out at 9.15%. The concentration at half-maximal activity (AC50) under setting [1] was 92 nM [falling, full curve, poor fit].

Take `CC1(c2ccc3c(c2)OCCO3)NC(=O)N(CC(=O)Nc2c(F)cccc2F)C1=O` (stereo not given): the cell number change is -32.7%. Moreover, the AC50 under setting [2] was 116 nM [falling, full curve, poor fit]. For the same molecule, the concentration at half-maximal activity (AC50) under setting [1] is 116 nM [falling, full curve, poor fit].

Turning to `CCCCc1ccc(-c2ccc(C)cc2O)nc1`, the cell number change came to 23.5%. The half-maximal activity concentration (AC50) under setting [2] was 206 nM [rising, full curve, poor fit]. In addition, under setting [1], the half-maximal activity concentration (AC50) was 146 nM [rising, full curve, poor fit].

For `COc1cc(OC)cc(C(=O)N2CCN(Cc3ccc4c(c3)OCO4)CC2)c1`, the cell number change came to 12.8%. Also, the AC50 under setting [1] is 6510 nM [rising, single point].

For the molecule `COc1ccc(C2C(C(=O)c3ccco3)=C(O)C(=O)N2Cc2cccnc2)cc1OC` (stereo not given), the cell number change is -9.51%. In addition, under setting [2], the AC50 is 2590 nM [rising, single point].

Regarding `NS(=O)(=O)Cc1noc2ccccc12`, the cell number change stood at 11.8%. Moreover, under setting [2], the AC50 is 3660 nM [falling, single point].

Take `CCCc1nc(SCC(=O)Nc2nnc(CC)s2)c2c(C)c(C)sc2n1`: the cell number change was found to be 2.01%.

With `CC(=O)c1cccc(NC(=O)/C(=C\c2cccnc2)NC(=O)c2ccco2)c1`, the cell number change turned out to be 22.1%. Further, the AC50 under setting [1] was 18400 nM [rising, single point].

Consider `COc1ccccc1NC(=O)NNC(=O)c1cc2ccccc2cc1O`, for which the cell number change is 36.2%.

As to `COC(=O)c1cc(NS(=O)(=O)c2cccs2)cc(NS(=O)(=O)c2cccs2)c1`, the cell number change was -14%.

In the case of `CN(Cc1ccccc1F)C(=O)COc1ccc(C(=O)c2ccccc2)cc1`, the cell number change is 7.89%. In addition, the AC50 under setting [1] is 3550 nM [rising, single point].

In the case of `C=CCn1c(SCC(=O)NC2CCS(=O)(=O)C2)nc2scc(C3CC3)c2c1=O` (stereo not given), the cell number change is -7.18%.
